Laboratory results: the supplement of paper PMC10849652
The list shows a part of the results.

The chains behind the UniProt entries cited, without tags or fusion partners. Where a name states a change or a piece, a line headed by the entry shows the natural chain unless it says otherwise.
UniProt Q9NYL9: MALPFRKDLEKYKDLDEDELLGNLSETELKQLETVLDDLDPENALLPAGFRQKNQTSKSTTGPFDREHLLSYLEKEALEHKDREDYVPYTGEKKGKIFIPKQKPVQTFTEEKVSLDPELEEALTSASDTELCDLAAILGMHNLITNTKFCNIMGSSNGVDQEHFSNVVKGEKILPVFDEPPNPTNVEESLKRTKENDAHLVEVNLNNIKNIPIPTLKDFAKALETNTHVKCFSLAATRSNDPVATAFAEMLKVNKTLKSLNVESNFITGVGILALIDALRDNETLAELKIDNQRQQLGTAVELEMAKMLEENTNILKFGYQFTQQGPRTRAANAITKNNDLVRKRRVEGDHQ
UniProt Q96MH6: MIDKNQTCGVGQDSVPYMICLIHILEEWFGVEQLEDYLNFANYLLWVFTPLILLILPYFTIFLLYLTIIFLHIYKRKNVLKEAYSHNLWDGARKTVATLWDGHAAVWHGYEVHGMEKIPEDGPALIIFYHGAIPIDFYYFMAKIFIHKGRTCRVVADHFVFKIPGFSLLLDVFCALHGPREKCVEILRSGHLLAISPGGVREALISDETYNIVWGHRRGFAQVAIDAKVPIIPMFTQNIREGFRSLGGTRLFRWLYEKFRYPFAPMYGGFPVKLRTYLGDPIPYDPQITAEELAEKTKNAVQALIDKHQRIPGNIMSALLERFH
UniProt P67936, whole entry, looked up: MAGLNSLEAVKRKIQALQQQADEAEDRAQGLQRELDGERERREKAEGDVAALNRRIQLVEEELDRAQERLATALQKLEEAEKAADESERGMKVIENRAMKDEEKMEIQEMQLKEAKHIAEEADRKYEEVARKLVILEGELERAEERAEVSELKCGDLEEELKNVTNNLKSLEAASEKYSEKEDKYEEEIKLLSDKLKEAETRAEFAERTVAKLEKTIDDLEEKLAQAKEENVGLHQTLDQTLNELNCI
UniProt O94826, whole entry, looked up: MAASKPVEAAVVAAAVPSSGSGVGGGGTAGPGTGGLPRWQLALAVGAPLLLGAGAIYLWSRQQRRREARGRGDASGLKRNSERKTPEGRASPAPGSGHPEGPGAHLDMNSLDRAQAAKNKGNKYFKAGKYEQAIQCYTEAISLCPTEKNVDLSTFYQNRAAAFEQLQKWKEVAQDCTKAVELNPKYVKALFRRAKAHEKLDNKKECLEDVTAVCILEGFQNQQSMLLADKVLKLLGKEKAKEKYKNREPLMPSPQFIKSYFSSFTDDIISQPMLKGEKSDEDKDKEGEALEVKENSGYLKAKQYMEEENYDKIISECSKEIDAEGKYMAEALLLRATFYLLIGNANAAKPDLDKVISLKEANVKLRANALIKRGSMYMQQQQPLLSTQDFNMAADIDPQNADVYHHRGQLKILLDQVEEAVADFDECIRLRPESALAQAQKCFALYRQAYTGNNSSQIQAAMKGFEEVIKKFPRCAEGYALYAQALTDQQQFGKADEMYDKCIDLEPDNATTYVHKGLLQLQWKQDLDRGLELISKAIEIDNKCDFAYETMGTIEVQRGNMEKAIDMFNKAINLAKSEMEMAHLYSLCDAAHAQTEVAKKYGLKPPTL
UniProt Q9Y5L0: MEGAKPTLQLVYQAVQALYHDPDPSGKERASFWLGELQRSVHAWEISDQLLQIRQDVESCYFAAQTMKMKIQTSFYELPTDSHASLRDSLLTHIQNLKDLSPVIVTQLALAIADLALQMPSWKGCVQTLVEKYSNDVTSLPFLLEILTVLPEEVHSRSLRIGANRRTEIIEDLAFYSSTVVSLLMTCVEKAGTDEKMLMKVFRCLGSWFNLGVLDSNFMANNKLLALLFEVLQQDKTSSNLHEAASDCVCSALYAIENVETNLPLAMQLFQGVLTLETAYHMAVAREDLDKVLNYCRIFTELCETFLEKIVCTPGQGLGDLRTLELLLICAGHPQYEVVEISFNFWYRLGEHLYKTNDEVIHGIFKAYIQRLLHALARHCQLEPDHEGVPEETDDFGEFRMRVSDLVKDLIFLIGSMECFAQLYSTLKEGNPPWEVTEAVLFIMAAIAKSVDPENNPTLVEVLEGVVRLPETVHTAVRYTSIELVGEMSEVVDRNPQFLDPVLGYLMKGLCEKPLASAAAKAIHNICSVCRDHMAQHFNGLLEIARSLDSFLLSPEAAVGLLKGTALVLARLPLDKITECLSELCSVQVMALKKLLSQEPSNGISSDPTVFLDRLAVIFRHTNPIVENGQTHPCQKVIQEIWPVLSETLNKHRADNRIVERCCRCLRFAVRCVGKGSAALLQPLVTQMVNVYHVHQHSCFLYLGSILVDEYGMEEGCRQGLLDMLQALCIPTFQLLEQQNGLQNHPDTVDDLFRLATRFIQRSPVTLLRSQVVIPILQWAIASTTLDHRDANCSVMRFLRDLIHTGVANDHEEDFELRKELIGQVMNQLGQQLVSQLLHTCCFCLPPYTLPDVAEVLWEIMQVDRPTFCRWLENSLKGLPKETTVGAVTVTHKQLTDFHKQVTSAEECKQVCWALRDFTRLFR
UniProt P60174, whole entry, looked up: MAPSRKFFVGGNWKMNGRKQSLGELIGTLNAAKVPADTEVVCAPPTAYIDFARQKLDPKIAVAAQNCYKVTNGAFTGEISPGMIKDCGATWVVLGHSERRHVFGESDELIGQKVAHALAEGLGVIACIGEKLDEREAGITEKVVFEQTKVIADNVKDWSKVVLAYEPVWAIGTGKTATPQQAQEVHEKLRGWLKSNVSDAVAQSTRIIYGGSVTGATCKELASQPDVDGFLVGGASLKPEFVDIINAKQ
UniProt O95379: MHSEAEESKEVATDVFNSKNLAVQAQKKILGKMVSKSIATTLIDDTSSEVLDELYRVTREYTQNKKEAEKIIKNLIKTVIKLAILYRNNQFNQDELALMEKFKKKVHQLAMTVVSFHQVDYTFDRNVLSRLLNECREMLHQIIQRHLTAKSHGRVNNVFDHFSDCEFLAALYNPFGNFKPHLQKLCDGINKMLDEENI
UniProt Q96K49: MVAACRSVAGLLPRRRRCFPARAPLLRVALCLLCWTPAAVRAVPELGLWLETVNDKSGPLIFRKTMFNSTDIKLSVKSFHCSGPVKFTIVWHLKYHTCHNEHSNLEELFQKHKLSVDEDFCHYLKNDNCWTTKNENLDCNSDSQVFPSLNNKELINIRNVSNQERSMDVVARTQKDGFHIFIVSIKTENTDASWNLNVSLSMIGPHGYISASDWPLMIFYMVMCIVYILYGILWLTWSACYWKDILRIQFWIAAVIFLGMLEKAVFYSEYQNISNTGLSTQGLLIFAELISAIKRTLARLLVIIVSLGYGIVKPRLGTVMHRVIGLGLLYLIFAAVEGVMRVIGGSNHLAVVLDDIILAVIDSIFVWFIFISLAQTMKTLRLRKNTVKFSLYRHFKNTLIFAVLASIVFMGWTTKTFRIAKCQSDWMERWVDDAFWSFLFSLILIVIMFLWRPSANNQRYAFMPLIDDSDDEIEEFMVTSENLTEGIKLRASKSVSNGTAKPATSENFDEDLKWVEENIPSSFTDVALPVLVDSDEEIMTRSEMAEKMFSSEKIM
UniProt Q15785: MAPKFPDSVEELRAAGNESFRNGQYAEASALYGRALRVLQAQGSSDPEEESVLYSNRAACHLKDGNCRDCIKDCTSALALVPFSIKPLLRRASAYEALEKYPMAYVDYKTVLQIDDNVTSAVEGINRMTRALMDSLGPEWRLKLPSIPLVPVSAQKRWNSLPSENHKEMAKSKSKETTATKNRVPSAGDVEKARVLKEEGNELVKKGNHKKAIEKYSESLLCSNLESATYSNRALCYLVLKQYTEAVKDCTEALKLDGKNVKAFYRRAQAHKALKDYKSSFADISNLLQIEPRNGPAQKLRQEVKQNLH
UniProt Q9P0T7: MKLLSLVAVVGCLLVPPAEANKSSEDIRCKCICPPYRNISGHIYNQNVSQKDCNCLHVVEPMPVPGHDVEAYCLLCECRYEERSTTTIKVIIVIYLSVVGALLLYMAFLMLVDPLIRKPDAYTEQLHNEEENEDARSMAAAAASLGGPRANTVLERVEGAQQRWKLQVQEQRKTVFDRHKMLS
UniProt P06753, whole entry, looked up: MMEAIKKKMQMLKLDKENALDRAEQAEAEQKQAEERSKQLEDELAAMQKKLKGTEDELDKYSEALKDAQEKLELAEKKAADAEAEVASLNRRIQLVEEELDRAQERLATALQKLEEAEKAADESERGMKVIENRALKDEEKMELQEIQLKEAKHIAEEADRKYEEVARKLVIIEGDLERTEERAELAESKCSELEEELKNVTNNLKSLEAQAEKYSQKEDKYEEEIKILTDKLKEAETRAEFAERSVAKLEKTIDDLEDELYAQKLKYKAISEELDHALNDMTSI
UniProt Q96A57: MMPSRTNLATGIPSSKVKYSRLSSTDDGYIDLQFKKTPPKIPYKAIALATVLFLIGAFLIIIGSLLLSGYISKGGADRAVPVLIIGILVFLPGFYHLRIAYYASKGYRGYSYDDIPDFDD
UniProt Q9BTX3: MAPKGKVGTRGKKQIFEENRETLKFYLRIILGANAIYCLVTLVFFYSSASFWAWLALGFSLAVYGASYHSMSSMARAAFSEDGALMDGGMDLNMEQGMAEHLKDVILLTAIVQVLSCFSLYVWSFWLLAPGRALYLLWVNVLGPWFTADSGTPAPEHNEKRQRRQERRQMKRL
UniProt Q5BJF2, whole entry, looked up: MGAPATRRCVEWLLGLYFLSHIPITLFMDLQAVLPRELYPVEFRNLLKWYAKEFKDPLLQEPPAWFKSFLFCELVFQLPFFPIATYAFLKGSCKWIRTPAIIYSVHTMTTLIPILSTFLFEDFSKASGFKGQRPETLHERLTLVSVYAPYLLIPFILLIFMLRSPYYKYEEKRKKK
UniProt Q86W33: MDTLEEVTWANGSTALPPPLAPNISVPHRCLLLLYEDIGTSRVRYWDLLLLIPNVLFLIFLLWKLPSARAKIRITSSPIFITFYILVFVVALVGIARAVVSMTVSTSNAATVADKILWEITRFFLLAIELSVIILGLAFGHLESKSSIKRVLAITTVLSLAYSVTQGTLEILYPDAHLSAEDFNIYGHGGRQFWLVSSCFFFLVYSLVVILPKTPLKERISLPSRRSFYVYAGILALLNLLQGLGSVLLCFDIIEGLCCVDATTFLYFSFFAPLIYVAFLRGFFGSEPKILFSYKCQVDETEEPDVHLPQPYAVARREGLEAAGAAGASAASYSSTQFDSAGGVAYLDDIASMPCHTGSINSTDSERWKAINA
UniProt Q96S44: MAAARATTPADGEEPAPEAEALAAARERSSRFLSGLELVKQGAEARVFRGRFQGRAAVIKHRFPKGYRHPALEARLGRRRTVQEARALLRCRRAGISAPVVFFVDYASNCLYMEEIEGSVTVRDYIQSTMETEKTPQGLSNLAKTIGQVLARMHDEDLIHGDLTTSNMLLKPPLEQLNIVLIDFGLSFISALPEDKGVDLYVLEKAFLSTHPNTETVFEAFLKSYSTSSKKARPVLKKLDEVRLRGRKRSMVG
UniProt P21580: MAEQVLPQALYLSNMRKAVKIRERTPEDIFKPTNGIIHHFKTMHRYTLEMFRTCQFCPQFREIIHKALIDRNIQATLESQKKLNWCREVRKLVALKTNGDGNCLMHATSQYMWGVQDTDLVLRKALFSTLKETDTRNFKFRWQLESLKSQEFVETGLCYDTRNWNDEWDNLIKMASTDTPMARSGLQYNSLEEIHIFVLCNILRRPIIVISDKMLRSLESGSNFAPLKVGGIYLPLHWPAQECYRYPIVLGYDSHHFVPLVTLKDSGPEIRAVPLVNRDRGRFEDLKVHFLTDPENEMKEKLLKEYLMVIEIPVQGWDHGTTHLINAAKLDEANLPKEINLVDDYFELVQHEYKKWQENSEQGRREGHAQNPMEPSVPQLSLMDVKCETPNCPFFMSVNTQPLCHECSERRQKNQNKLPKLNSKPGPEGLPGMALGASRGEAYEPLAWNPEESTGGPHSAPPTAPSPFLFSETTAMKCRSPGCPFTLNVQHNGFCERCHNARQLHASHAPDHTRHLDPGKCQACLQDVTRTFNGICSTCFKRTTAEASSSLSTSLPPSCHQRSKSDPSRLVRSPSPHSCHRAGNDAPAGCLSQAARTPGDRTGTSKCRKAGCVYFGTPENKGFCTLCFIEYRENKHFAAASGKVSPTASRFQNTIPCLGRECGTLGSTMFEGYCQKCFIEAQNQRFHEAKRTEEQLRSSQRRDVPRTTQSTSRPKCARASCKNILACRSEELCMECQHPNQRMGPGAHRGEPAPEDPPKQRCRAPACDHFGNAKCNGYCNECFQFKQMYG
UniProt A5PLL7: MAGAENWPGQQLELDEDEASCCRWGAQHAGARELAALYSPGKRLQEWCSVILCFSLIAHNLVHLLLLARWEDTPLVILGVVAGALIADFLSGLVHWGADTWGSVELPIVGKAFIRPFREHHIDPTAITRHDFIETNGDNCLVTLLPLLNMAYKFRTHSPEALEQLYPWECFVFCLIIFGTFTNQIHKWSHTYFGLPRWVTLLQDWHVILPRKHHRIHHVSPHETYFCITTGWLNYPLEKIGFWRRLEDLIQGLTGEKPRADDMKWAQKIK
UniProt Q16890: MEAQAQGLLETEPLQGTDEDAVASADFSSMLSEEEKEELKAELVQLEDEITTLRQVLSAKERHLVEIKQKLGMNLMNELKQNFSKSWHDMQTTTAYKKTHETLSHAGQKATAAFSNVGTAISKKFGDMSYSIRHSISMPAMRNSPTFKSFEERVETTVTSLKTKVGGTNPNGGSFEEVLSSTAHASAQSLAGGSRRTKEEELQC

What was measured:
Assay in all cases: log2 fold change, soluble protein after heating vs DMSO (PISA); higher = thermal stabilisation; K562 lysate, 10 uM; active = over 0.2 and 3.5 SD of the protein, either way, in both replicates (recomputed)
[1] = compound: CN1CC[C@H](c2c(O)cc(O)c3c(=O)cc(-c4ccccc4Cl)oc23)[C@H](O)C1 [alvocidib]
Outline: (§1)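 K562 pellets were dounce-homogenised in PBS pH 7.4 with 1 mM MgCl2, and the crude extract at 1 mg/mL protein was treated with 10 μM compound for 30 min. Aliquots were heated for 3 min across 48°C-58°C, pooled, and brought to 0.5% NP-40 at 4°C; soluble protein was the supernatant after 21,000xg for 90 min. Soluble protein was quantified by TMTpro 16plex LC-MS/MS with channel sums equalised, and reported as log2 fold change in thermal stability against DMSO controls, with values from duplicates.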

[2] = compound: CN1CCc2c(c3ccccc3n2Cc2ccc(C(=O)NO)cc2)C1 [Tubastatin A]
Outline: as §1

[3] = compound: CNC(=O)C1=CC=CC=C1NC2=NC(=NC=C2Cl)NC3=C(C=C(C=C3)N4CCOCC4)OC
Outline: as §1

[4] = compound: CNC(=O)c1ccc(Nc2ncc(C(F)(F)F)c(NCc3nccnc3N(C)S(C)(=O)=O)n2)cc1 [defactinib]
Outline: as §1

[5] = compound: CNc1nc(-c2ccc3c(N)n[nH]c3c2)cc(N2C[C@@H](C(=O)NC3CCCCC3)CC[C@H]2C)n1
Outline: as §1

[6] = compound: COC(=O)N[C@@H](C)CNc1nccc(-c2cn(C(C)C)nc2-c2cc(Cl)cc(NS(C)(=O)=O)c2F)n1 [encorafenib]
Outline: as §1

[7] = compound: COC(=O)[C@H](CCSC)NC(=O)C1=C(C=C(C=C1)NC[C@H](CS)N)C2=CC=CC=C2
Outline: as §1

[8] = compound: COc1cc(Nc2ncc3c(n2)-c2ccc(Cl)cc2C(c2c(F)cccc2OC)=NC3)ccc1C(=O)O [alisertib]
Outline: as §1

[9] = compound: COc1cc2nc(-c3cc(F)ccc3O)nc(N[C@@H]3CNC[C@H]3C(C)(C)O)c2cc1OC
Outline: as §1

[10] = compound: COc1cc2ncnc(Nc3ccc(F)c(Cl)c3)c2cc1OCCCN1CCOCC1 [gefitinib]
Outline: as §1

Row | Target | log2 fold change [1] | log2 fold change [2] | log2 fold change [3] | log2 fold change [4] | log2 fold change [5] | log2 fold change [6] | log2 fold change [7] | log2 fold change [8] | log2 fold change [9] | log2 fold change [10]
1 | TNFRSF1B (UniProt P20333) | inactive: -0.092 | inactive: -0.005 | inactive: 0.016 | inactive: 0.12 | inactive: 0.134 | inactive: 0.111 | inactive: -0.018 | inactive: -0.145 | inactive: -0.001 | inactive: 0.075
2 | TMOD3 (UniProt Q9NYL9) | inactive: -0.035 | inactive: 0.031 | inactive: 0.01 | inactive: -0.019 | inactive: 0.057 | inactive: 0.029 | inactive: -0.122 | inactive: 0.023 | inactive: -0.003 | inactive: 0.021
3 | TMUB1 (UniProt Q9BVT8) | inactive: -0.008 | inactive: -0.032 | inactive: 0.057 | inactive: 0.057 | inactive: 0.041 | inactive: 0.03 | inactive: -0.353 | inactive: 0.02 | inactive: -0.087 | inactive: -0.008
4 | TOPBP1 (UniProt Q92547) | inactive: 0.024 | inactive: -0.067 | inactive: 0.033 | inactive: 0.047 | inactive: 0.01 | inactive: -0.024 | inactive: 0.108 | inactive: -0.039 | inactive: 0.034 | inactive: 0.008
5 | TOP3A (UniProt Q13472) | inactive: 0.082 | inactive: -0.1 | inactive: -0.071 | inactive: -0.048 | inactive: 0.009 | inactive: 0.008 | inactive: 0.091 | inactive: -0.039 | inactive: -0.118 | inactive: -0.005
6 | TMEM68 (UniProt Q96MH6) | inactive: -0.004 | inactive: -0.019 | inactive: 0.041 | inactive: 0.024 | inactive: 0.029 | inactive: 0.05 | inactive: -0.001 | inactive: -0.049 | inactive: -0.051 | inactive: 0.017
7 | TPM4 (UniProt P67936) | inactive: -0.016 | inactive: 0.074 | inactive: -0.021 | inactive: 0.019 | inactive: 0.022 | inactive: 0.028 | inactive: -0.028 | inactive: -0.105 | inactive: 0.012 | inactive: 0.033
8 | TMUB2 (UniProt Q71RG4) | inactive: -0.088 | inactive: 0.059 | inactive: 0.065 | inactive: 0.068 | inactive: 0.003 | inactive: 0.218 | inactive: -0.091 | inactive: 0 | inactive: -0.053 | inactive: -0.119
9 | TOMM70 (UniProt O94826) | inactive: 0.007 | inactive: -0.005 | inactive: 0.035 | inactive: -0.02 | inactive: -0.011 | inactive: 0.061 | inactive: -0.282 | inactive: -0.025 | inactive: 0.02 | inactive: 0.034
10 | TNPO3 (UniProt Q9Y5L0) | inactive: 0.003 | inactive: -0.04 | inactive: 0 | inactive: -0.007 | inactive: -0.007 | inactive: 0 | inactive: -0.108 | inactive: -0.001 | inactive: 0.023 | inactive: -0.018
11 | TPI1 (UniProt P60174) | inactive: -0.048 | inactive: 0.079 | inactive: 0.016 | inactive: 0.023 | inactive: 0.074 | inactive: -0.029 | inactive: -0.049 | inactive: 0.029 | inactive: 0.006 | inactive: -0.004
12 | TNFAIP8 isoform 4 (UniProt O95379) | inactive: -0.058 | inactive: 0.022 | inactive: 0.005 | inactive: -0.079 | inactive: -0.068 | inactive: -0.045 | inactive: -0.076 | inactive: -0.065 | inactive: 0.014 | inactive: 0.013
13 | TMEM87B (UniProt Q96K49) | inactive: 0.035 | inactive: 0.044 | inactive: -0.035 | inactive: -0.032 | inactive: -0.045 | inactive: -0.055 | inactive: 0.017 | inactive: 0.004 | inactive: 0.031 | inactive: 0.018
14 | TMX4 (UniProt Q9H1E5) | inactive: 0 | inactive: -0.101 | inactive: 0.019 | inactive: -0.051 | inactive: -0.074 | inactive: -0.015 | inactive: -0.036 | inactive: -0.057 | – | inactive: 0.304
15 | TOMM34 (UniProt Q15785) | inactive: 0.021 | inactive: -0.105 | inactive: 0.04 | inactive: 0.018 | inactive: 0.038 | inactive: 0.027 | inactive: -0.004 | inactive: 0.021 | inactive: -0.001 | inactive: -0.022
16 | TMEM9 (UniProt Q9P0T7) | inactive: -0.02 | inactive: 0.022 | inactive: -0.102 | inactive: -0.01 | inactive: 0.051 | – | – | inactive: -0.088 | inactive: 0.042 | inactive: -0.034

Row | Target | log2 fold change [1] | log2 fold change [2] | log2 fold change [3] | log2 fold change [4] | log2 fold change [5] | log2 fold change [6] | log2 fold change [7] | log2 fold change [8] | log2 fold change [9] | log2 fold change [10]
17 | TMEM41B (UniProt Q5BJD5) | inactive: 0.057 | inactive: 0.105 | inactive: 0.049 | – | inactive: -0.176 | inactive: 0.004 | inactive: -0.052 | – | inactive: -0.055 | –
18 | TPM3 isoform 3 (UniProt P06753) | inactive: -0.202 | inactive: -0.049 | inactive: 0.028 | inactive: 0.074 | inactive: -0.137 | inactive: -0.014 | inactive: -0.039 | – | inactive: -0.001 | –
19 | TPRG1L (UniProt Q5T0D9) | inactive: -0.076 | inactive: -0.137 | inactive: 0.026 | inactive: -0.087 | inactive: -0.017 | inactive: 0 | inactive: 0.045 | inactive: 0.059 | inactive: -0.003 | inactive: -0.014
20 | TNFRSF10B (UniProt O14763) | inactive: 0.038 | inactive: 0.038 | inactive: 0.031 | inactive: 0.007 | inactive: 0.023 | inactive: 0.01 | inactive: -0.041 | inactive: 0.01 | inactive: -0.077 | inactive: -0.006
21 | TMEM230 isoform 2 (UniProt Q96A57) | inactive: -0.051 | inactive: 0.043 | inactive: 0.026 | inactive: -0.054 | inactive: 0.049 | inactive: 0.06 | inactive: -0.051 | – | inactive: 0.018 | –
22 | TMEM208 (UniProt Q9BTX3) | inactive: -0.173 | inactive: -0.099 | inactive: -0.08 | – | inactive: 0.031 | inactive: 0.039 | inactive: -0.102 | inactive: 0.01 | inactive: -0.069 | inactive: -0.008
23 | TMEM65 (UniProt Q6PI78) | inactive: -0.02 | inactive: 0.09 | inactive: 0.026 | inactive: 0.05 | inactive: 0.067 | inactive: 0.177 | inactive: -0.003 | inactive: 0.148 | inactive: -0.047 | inactive: -0.043
24 | TMPPE (UniProt Q6ZT21) | inactive: -0.026 | inactive: -0.07 | inactive: 0.01 | inactive: 0.049 | – | inactive: 0.014 | inactive: -0.112 | inactive: -0.004 | inactive: -0.042 | inactive: 0.049
25 | TMEM189-UBE2V1 (UniProt I3L0A0) | inactive: 0.002 | inactive: 0.013 | inactive: 0.018 | inactive: -0.03 | inactive: 0.126 | inactive: 0.035 | inactive: -0.049 | inactive: -0.032 | inactive: -0.002 | inactive: 0.028
26 | TMEM97 (UniProt Q5BJF2) | inactive: -0.081 | inactive: 0.114 | inactive: -0.016 | inactive: -0.021 | inactive: 0.091 | inactive: -0.008 | inactive: -0.042 | inactive: -0.026 | inactive: 0.014 | inactive: -0.017
27 | TMEM248 (UniProt Q9NWD8) | inactive: 0.043 | inactive: 0.14 | inactive: -0.147 | inactive: -0.078 | inactive: -0.083 | inactive: 0.098 | inactive: -0.062 | inactive: -0.13 | – | inactive: -0.146
28 | TPRA1 (UniProt Q86W33) | inactive: -0.293 | inactive: -0.06 | inactive: 0.004 | – | inactive: -0.067 | – | – | – | inactive: 0.021 | –
29 | TP53RK (UniProt Q96S44) | inactive: -0.012 | inactive: 0.054 | inactive: -0.037 | inactive: 0.019 | inactive: -0.026 | inactive: 0.028 | inactive: 0.025 | inactive: 0.001 | inactive: 0.002 | inactive: -0.042
30 | TNFAIP3 (UniProt P21580) | inactive: 0.005 | inactive: -0.076 | inactive: 0.022 | – | inactive: -0.009 | active: 0.276 | inactive: 0.228 | inactive: 0.002 | inactive: 0.031 | inactive: -0.028
31 | TMEM189 (UniProt A5PLL7) | inactive: -0.065 | inactive: 0.01 | inactive: 0.133 | – | inactive: -0.137 | inactive: 0.034 | inactive: -0.092 | inactive: 0.035 | inactive: -0.096 | inactive: -0.038
32 | TPD52L1 (UniProt Q16890) | inactive: -0.016 | inactive: 0.072 | inactive: -0.017 | inactive: 0.038 | inactive: 0.021 | inactive: 0.031 | inactive: 0.032 | inactive: 0.002 | inactive: 0.077 | inactive: 0.011

Single records, as listed above. Values in the order: log2 fold change [1]	log2 fold change [2]	log2 fold change [3]	log2 fold change [4]	log2 fold change [5]	log2 fold change [6]	log2 fold change [7]	log2 fold change [8]	log2 fold change [9]	log2 fold change [10]
TNFAIP3 (UniProt P21580) reads inactive: 0.005	inactive: -0.076	inactive: 0.022	–	inactive: -0.009	active: 0.276	inactive: 0.228	inactive: 0.002	inactive: 0.031	inactive: -0.028
TMPPE (UniProt Q6ZT21) reads inactive: -0.026	inactive: -0.07	inactive: 0.01	inactive: 0.049	–	inactive: 0.014	inactive: -0.112	inactive: -0.004	inactive: -0.042	inactive: 0.049
